In assay [1] the test system is DLD1 NRF2-GOF. The note with it: 72 h; CellTiter-Glo viability. Summed up:
(§1)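 In 384-well plates, library compounds were applied at 5 concentrations spanning a 10,000-fold range to isogenic DLD1 colorectal cancer cells, NRF2 wild-type or CRISPR gain-of-function, maintained in DMEM with 10% FBS. A Pherastar FS reader recorded CellTiter-Glo signal at 72 h, with normalisation to vehicle wells and 100-μM positive-control wells. Curves were fitted with a four-parameter logistic model. EC50 and drug sensitivity score, a normalised area under the curve, came from those curves.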
For orientation: In ATP-based viability assays light output follows the ATP content of the culture.

For assay [2], the system named is DLD1 NRF2-GOF. Briefly: drug sensitivity score (DSS) cytotoxicity (DSS score); higher = more toxic; extreme values may be limits of the assay. The note with it: 72 h; CellTox Green cytotoxicity. Summed up: (§2)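 TC50 and drug sensitivity score, a normalised area under the curve, were derived by logistic dose-response fits of cytotoxicity. The cells were an isogenic DLD1 colorectal cancer pair, NRF2 wild-type or CRISPR-edited, kept in DMEM with 10% FBS. Compounds were tested in 384-well plates at 5 concentrations across a 10,000-fold range for 72 h. Readings with CellTox Green on a Pherastar FS reader were normalised to vehicle wells and 100-μM positive-control wells.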

The test system of a further assay is DLD1 NRF2-WT. The assay is described as above. The note with it: 72 h; CellTox Green cytotoxicity. Summed up:
as §2

Assay [3] relates to DLD1 NRF2-GOF. Briefly: drug sensitivity score (DSS) viability (DSS score); higher = more sensitive; extreme values may be limits of the assay. Particulars: 72 h; CellTiter-Glo viability. In outline:
as §1

SMILES strings stand for the structures.

In the assay on DLD1 NRF2-GOF [1], `C[C@@H]1C[C@H](N)C[C@H](c2ccncc2NC(=O)c2ccc(F)c(-c3c(F)cccc3F)n2)C1` [PIM-447] had an EC50 viability of 4.18 µM. The drug sensitivity score turned out to be 0 in the assay with DLD1 NRF2-GOF [2], 0 in the assay on DLD1 NRF2-WT and 2.3 with DLD1 NRF2-GOF [3].

For the origin of these results see the supplement of paper PMC7600603.
